Experimental findings from PubChem BioAssay AID651900 (Broad Institute, 2012) are described below.

The experiment can be described thus: cytotoxicity in NIH3T3 fibroblasts, dose response, cytotoxicity control, cell-based, plate reader, cherry-pick, two tests (AID 651900). The note with it: test 2 concentration series, at 26 µM.

The list shows a part of the results. These are further read-outs of the screen, such as a control signal, another cell line or another target. No call is given for them.

As for `O=C(CSc1nc2c(c(=O)n1-c1ccccc1)SCC2)N1CCOCC1`, the activity worked out at 1.96%. To `O=C(Nc1ccc(F)cc1)NC1CCN(Cc2nnnn2Cc2ccco2)CC1` belongs 0.188%. To `Cc1nnc(N2CCC(C(=O)N3CCCCC3)CC2)c2nn(-c3ccc(Cl)cc3)c(C)c12` belongs -5.02%; to `Nc1cc(C(=O)O)ccc1Nc1ccccc1`, -6.31%. To `O=C(Nc1cccnc1)c1ccc(N2CCOCC2)c([N+](=O)[O-])c1` belongs 6.82%.

Turning to `COc1ccc(Cn2ccc(=O)c(Cc3c(Cl)cccc3Cl)c2C)cc1`, the activity was -9.55%.

On to `CC(=O)c1ccc(C(=O)N2CCCC(Nc3ccc(C(C)C)cc3)C2)s1` (stereo not given), for which the activity came out at 6.57%. To `O=C(CSc1nc2ccccc2c(=O)n1-c1ccccc1)N1CCN(CCO)CC1` belongs 0.387%; to `CC(=O)c1ccc(NC(=O)CN2CCN(c3ccccc3)CC2)cc1`, -2.98%; to `COc1ccc(-c2nc3cnccn3c2Nc2ccc3c(c2)OCO3)cc1`, -11.8%.

In the case of `O=C(Nc1ncc2c(n1)CC(c1ccccc1)CC2=O)c1ccco1` (stereo not given), the activity was 2.71%. For the compound `Cc1nc2nc(SCC(=O)N3CCOCC3)nn2c(C)c1Cc1ccccc1`, the activity is -6.33%. To `COc1ccc(C(=O)Nc2cccnc2)cc1OC` belongs -1.88%.

Consider `CCCC(=O)Nc1cccc(NC(=O)c2ccc(C)c([N+](=O)[O-])c2)c1`, for which the activity was -1.93%. Take `O=C(c1ccc(Br)s1)N1CCN(Cc2ccc3c(c2)OCO3)CC1`: the activity is -7.23%.
